System: Phanerochaete chrysosporium
Test: Substrate removal / decolorization by P. chrysosporium culture
Assay type: cell-based
Settings: 300 ppm
Method: Environ. Microbiol., 1981, 42:290-296), with the addition of 75 mg adenine (6-aminopurine) and 27 mg L-phenylalanine-per-liter. This addition accelerated the growth of the fungus without inhibiting ligninase activity. […] […] Cultures were incubated at 37° C. for 7 to 15 days with shaking (250 rpm). Solid agar media were also employed.

Row | SMILES | Toxicity / inhibition of the fungus by the dye
1 | O=S(=O)(O)c1ccc2c(N=Nc3ccccc3)c(O)ccc2c1 [compound 19] | began to be toxic
2 | Cc1cc(N=Nc2ccc(S(=O)(=O)O)cc2)cc(C)c1O [compound 3] | becomes more toxic
3 | O=S(=O)(O)c1ccc(N=Nc2cc(F)c(O)c(F)c2)cc1 [compound 12] | began to be toxic
4 | COc1cc(N=Nc2ccc(S(=O)(=O)O)cc2)cc(OC)c1O [compound 4] | do not exhibit a similar degree of inhibition
5 | Cc1cc(O)c(N=Nc2ccc(S(=O)(=O)O)cc2)cc1C [compound 7] | began to be toxic
6 | Cc1cc(N=Nc2ccc(S(=O)(=O)O)cc2)ccc1O [compound 5] | do not exhibit a similar degree of inhibition
7 | O=S(=O)(O)c1ccc(N=Nc2c(O)ccc3ccccc23)cc1 [compound 31] | began to be toxic

Reference: patent US5618726A, “Biodegradable azo dyes” (priority 1994, dated 1997)
